Source: paper PMC8862393
These are yes or no findings as the source states them, for the method shown. In cells and extracts the contact can be indirect. Some results given as binding are weak or reduced against the parent protein; the word gives no strength.

Protein sequences, listed by entry. Tags and fused reporters are not part of them. Residues count along the entry.
UniProt P63158: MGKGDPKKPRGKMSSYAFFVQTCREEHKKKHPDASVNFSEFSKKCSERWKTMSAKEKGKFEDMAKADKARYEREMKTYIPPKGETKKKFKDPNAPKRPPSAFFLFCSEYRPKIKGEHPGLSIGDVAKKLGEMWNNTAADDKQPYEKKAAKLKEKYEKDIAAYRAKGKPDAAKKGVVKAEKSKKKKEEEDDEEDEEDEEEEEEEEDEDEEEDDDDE
UniProt P09429: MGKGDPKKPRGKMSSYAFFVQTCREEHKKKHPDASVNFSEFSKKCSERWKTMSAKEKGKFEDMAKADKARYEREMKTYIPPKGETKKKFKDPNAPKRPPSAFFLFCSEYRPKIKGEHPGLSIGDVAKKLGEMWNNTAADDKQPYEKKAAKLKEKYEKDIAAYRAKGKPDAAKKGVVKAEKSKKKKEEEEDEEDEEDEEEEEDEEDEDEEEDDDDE
UniProt Q62151, residues 23-402: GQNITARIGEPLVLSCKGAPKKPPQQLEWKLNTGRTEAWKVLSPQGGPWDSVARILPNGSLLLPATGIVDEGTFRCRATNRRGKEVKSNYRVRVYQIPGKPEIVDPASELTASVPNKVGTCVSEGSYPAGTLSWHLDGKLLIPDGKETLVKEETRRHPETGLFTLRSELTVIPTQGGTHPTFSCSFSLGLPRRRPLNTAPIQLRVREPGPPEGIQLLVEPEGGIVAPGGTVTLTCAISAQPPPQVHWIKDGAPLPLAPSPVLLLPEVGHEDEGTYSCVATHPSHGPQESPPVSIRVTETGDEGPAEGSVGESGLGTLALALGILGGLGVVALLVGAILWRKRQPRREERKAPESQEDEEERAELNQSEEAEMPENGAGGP
UniProt Q15109, residues 23-404: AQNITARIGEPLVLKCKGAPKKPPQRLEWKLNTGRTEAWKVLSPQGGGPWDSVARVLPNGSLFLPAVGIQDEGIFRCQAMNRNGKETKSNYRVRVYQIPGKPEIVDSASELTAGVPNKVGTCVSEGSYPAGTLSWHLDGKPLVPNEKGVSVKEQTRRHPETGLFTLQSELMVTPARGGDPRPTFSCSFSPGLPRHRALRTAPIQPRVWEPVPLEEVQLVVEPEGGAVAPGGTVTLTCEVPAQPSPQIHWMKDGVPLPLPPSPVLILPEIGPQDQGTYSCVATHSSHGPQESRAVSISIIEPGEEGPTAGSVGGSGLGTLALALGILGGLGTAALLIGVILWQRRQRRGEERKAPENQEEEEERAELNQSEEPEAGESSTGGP

Key:
[1] = molecular target: High mobility group box 1 (HMGB1), endogenous in mouse RAW264.7 macrophages (mouse (endogenous in RAW264.7)) (UniProt P63158); experiment: co-IP; cell lysates (Pierce IP lysis buffer, protease inhibitors) incubated with anti-HMGB1 antibody or control IgG and Protein A/G agarose overnight at 4 °C, washed three times with PBS, immunoblot for HMGB1 and RAGE; also the reverse with anti-RAGE antibody (Fig. 5B)
[2] = molecular target: High mobility group box 1 (HMGB1), endogenous in human THP1 cell line-derived macrophages (human (endogenous in THP1 cell line-derived macrophages)) (UniProt P09429); experiment: as above

## Receptor for advanced glycation end products (RAGE), endogenous in mouse RAW264.7 macrophages (from UniProt Q62151 23-402)
[1]
  binding: binds

## Receptor for advanced glycation end products (RAGE), endogenous in human THP1 cell line-derived macrophages (from UniProt Q15109 23-404)
[2]
  binding: binds
